Patent US20070208043A1, “Use of Serum Amyloid A Gene in Diagnosis and Treatment of Glaucoma and Identification of Anti-Glaucoma Agents” (ALCON, INC., priority 2003, published 2007)

Tested on: SAA induced IL-8 secretion in TM cells
Test: Inhibition of SAA induced IL-8 secretion in TM cells (IL-8 in media by ELISA)
Format: cell-based
Conditions: 4 h, read-out: Calculated IC50, inhibition of SAA stimulated IL-8 secretion
Experimental: FIG. 11. Effect of MAP p38 kinase inhibitors on induction of IL-8 by SAA treatment (1 μg/ml) in TM cells. […] IL-8 was measured in the media by ELISA.
FIG. 12. […] NTM650-03, p9 or HL-60 cells were treated in serum-free DMEM for 4 hours with 1 μg/ml SAA and the indicated concentrations of SB202580. IL-8 was measured in the media by ELISA.
One pathway for upregulation of IL-8 is through activation of MAP kinases.

Q: Which IC50 does the source give for `C[S+]([O-])c1ccc(-c2nc(-c3ccc(F)cc3)c(-c3ccncc3)[nH]2)cc1` (stereo not shown) [SB203580, 4-(4-fluorophenyl)-2-(4-methylsulfinylphenyl)-5-(4-pyridyl)-1H-imidazole] here?
A: Its IC50 is 15 µM.
